The list shows only some results of the screen, not a fair sample: it is rich in T/C values a quarter to a half above the control, in often repeated tests (any T/C) and in doses without a T/C. Further doses and runs are listed elsewhere. T/C is the treated group as % of the vehicle group. Some entries give survivors of the animals treated and no T/C: the source files T/C as zero there, which appears to mark a toxic dose or a test without result, not a measured value. Some survivor counts are full or nearly so, which does not show that the dose was tolerated: survival well below the control is almost never listed, so the zero probably covers shortened survival too. Survivors were counted at the toxicity check, usually on the fifth day, unless a day is given; later deaths do not show. Schedule codes are those of the source, read here as Q, the interval in days (D) or hours (H), X, the number of doses. Some entries hold several experiments; the results are listed from low to high. For survival time, this PubChem deposit counts one and a half times the control or more as active, and values a quarter to a half above the control carry no call in these data; other NCI protocols may use other cut-offs. Some T/C values carry the count of animals alive at the toxicity check (mostly the fifth day); without a count, all were alive then.
Tested on: BDF1 mice, P388 leukemia ip, median survival T/C
Assay: NCI In Vivo Anticancer Drug Screen. Data for tumor model P388 Leukemia (intraperitoneal) in B6D2F1 (BDF1) mice
Details: T/C endpoint: median survival time, higher T/C = longer survival
How it was run: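 T/C = treated-group survival ÷ vehicle-control survival; tumour transplanted into mice before dosing.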

[1] = dose: 6.25 mg/kg/injection, schedule: Q01DX009 (ip), vehicle: saline with Tween-80
[2] = dose: 12.5 mg/kg/injection, schedule: Q01DX009 (ip), vehicle: saline with Tween-80
[3] = dose: 100.0 mg/kg/injection, schedule: Q04DX003 (ip), vehicle: saline with Tween-80
[4] = dose: 200.0 mg/kg/injection, schedule: Q04DX003 (ip), vehicle: saline with Tween-80
[5] = dose: 2.0 mg/kg/injection, schedule: Q01DX009 (ip), vehicle: saline with Tween-80
[6] = dose: 16.5 mg/kg/injection, schedule: Q04DX003 (ip), vehicle: saline with Tween-80

## CC([OH2+])CNCCN.CC([OH2+])CNCCN.O=[N+]([O-])[O-].[Cu+2] (centres undefined)
dose: 50.0 mg/kg/injection, schedule: Q01DX009 (ip), vehicle: saline
  survivor count: 2 of 6

## CCC[CH2][Sn]1([CH2]CCC)[O]OC(C)(CC)[O]1 (centres undefined)
dose: 1.56 mg/kg/injection, schedule: Q01DX009 (ip), vehicle: saline with Tween-80
  T/C: 138 % of control [5 of 6 alive]
dose: 3.13 mg/kg/injection, schedule: Q01DX009 (ip), vehicle: saline with Tween-80
  T/C: 147 % of control
[1]
  survivor count: 1 of 6

## CC1(C)N=C(N)N=C(N)N1c1ccc(F)cc1
dose: 100.0 mg/kg/injection, schedule: Q01DX005 (ip), vehicle: Klucel (hydroxypropylcellulose) (HPC)
  survivor count: 2 of 6
dose: 200.0 mg/kg/injection, schedule: Q01DX005 (ip), vehicle: Klucel (hydroxypropylcellulose) (HPC)
  survivor count: 0 of 6

## CN(C)C(CC(=O)c1ccccc1)C(=O)O (centres undefined)
dose: 100.0 mg/kg/injection, schedule: Q04DX003 (ip), vehicle: saline sonified
  T/C: 125 % of control
dose: 200.0 mg/kg/injection, schedule: Q04DX003 (ip), vehicle: saline sonified
  survivor count: 0 of 6

## O=C1C(N2CC2)=C(N2CCCC(O)C2)C(=O)C(N2CC2)=C1N1CCCC(O)C1 (centres undefined)
dose: 0.25 mg/kg/injection, schedule: Q01DX009 (ip), vehicle: saline
  T/C: 148 % of control
dose: 0.5 mg/kg/injection, schedule: Q01DX009 (ip), vehicle: saline
  T/C: 131 % of control [5 of 6 alive]

## CC12CCC(c3sc(N)c(C#N)c31)C2(C)C (centres undefined)
[1]
  T/C: 129 % of control

## CC(C#N)(Nc1ccccc1)c1ccco1 (centres undefined)
dose: 100.0 mg/kg/injection, schedule: Q04DX003 (ip), vehicle: other
  survivor count: 6 of 6
dose: 200.0 mg/kg/injection, schedule: Q04DX003 (ip), vehicle: other
  survivor count: 2 of 6
dose: 400.0 mg/kg/injection, schedule: Q04DX003 (ip), vehicle: other
  survivor count: 0 of 6

## Cn1nnc(N/N=C/c2ccccc2)n1
[2]
  T/C: 140 % of control [5 of 6 alive]
dose: 40.0 mg/kg/injection, schedule: Q01DX009 (ip), vehicle: saline with Tween-80
  survivor count: 3 of 6
dose: 50.0 mg/kg/injection, schedule: Q01DX009 (ip), vehicle: saline with Tween-80
  survivor count: 0 of 6
dose: 50.0 mg/kg/injection, schedule: Q04DX003 (ip), vehicle: saline with Tween-80
  survivor count: 1 of 6
[3]
  survivor count: 6 of 6

## BrCC(Br)CBr
dose: 200.0 mg/kg/injection, schedule: Q01DX009 (ip), vehicle: saline with Tween-80
  survivor count: 5 of 6

## c1ccc2cc(OCC3CO3)c(OCC3CO3)cc2c1 (centres undefined)
dose: 240.0 mg/kg/injection, schedule: Q01DX005 (ip), vehicle: saline with Tween-80
  survivor count: 2 of 5

## N#C[SH2+].N#C[SH2+].N#C[SH2+].N#C[SH2+].[Cu+2].c1ccc(C[P+](c2ccccc2)(c2ccccc2)c2ccccc2)cc1
dose: 200.0 mg/kg/injection, schedule: Q01DX001 (ip), vehicle: saline with Tween-80
  survivor count: 1 of 6
dose: 400.0 mg/kg/injection, schedule: Q01DX001 (ip), vehicle: saline with Tween-80
  survivor count: 0 of 6

## COC12CC(=O)C(C(C)=O)=C(O)C1(C)c1c(OC(C)=O)c(C)c(O)c(C(C)=O)c1O2 (centres undefined)
dose: 12.5 mg/kg/injection, schedule: Q01DX009 (ip), vehicle: gum acacia
  T/C: 133 % of control [4 of 6 alive]
dose: 25.0 mg/kg/injection, schedule: Q01DX009 (ip), vehicle: gum acacia
  T/C: 132 % of control [5 of 6 alive]
dose: 50.0 mg/kg/injection, schedule: Q01DX009 (ip), vehicle: gum acacia
  survivor count: 5 of 6
dose: 100.0 mg/kg/injection, schedule: Q01DX009 (ip), vehicle: gum acacia
  survivor count: 1 of 6

## CC(=O)Nc1cc2c(cc1Br)-c1ccc(F)cc1C2
[3]
  survivor count: 6 of 6
[4]
  survivor count: 6 of 6
dose: 400.0 mg/kg/injection, schedule: Q04DX003 (ip), vehicle: saline with Tween-80
  survivor count: 5 of 6

## CC(=O)[C@]1(O)Cc2c(O)c3c(c(O)c2[C@@H](OC2CC(N)C(O)C(C)O2)C1)C(=O)c1c(O)cccc1C3=O (some centres undefined)
dose: 0.65 mg/kg/injection, schedule: Q04DX003 (ip), vehicle: water
  T/C: 135 % of control
dose: 1.5 mg/kg/injection, schedule: Q04DX003 (ip), vehicle: water
  survivor count: 8 of 8
dose: 1.8 mg/kg/injection, schedule: Q04DX003 (ip), vehicle: water
  survivor count: 8 of 8

## [NH-]CC([NH-])=O.[NH-]CC([NH-])=O.[Ni]
dose: 20.0 mg/kg/injection, schedule: Q01DX009 (ip), vehicle: water
  survivor count: 3 of 6
dose: 40.0 mg/kg/injection, schedule: Q01DX009 (ip), vehicle: water
  survivor count: 0 of 6
dose: 50.0 mg/kg/injection, schedule: Q04DX003 (ip), vehicle: water
  survivor count: 3 of 6
dose: 100.0 mg/kg/injection, schedule: Q04DX003 (ip), vehicle: water
  survivor count: 0 of 6

## CCCCCCCCCCCCCCCCCCCCCCCCC(O)C(=O)NC(CO)C(O)C(O)CCCCCCCCCCCCCC (centres undefined)
[3]
  survivor count: 6 of 6
[4]
  survivor count: 6 of 6

## Cc1nc(N)nc(N)c1-c1ccc(Cl)c(Cl)c1
dose: 1.3 mg/kg/injection, schedule: Q01DX009 (ip), vehicle: saline with Tween-80
  survivor count: 6 of 6
[5]
  T/C: 140 % of control
  survivor count: 6 of 6
[2]
  survivor count: 6 of 6
dose: 16.0 mg/kg/injection, schedule: Q02DX005 (ip), vehicle: Klucel (hydroxypropylcellulose) (HPC)
  T/C: 132 % of control
[6]
  T/C: 136 % of control
  survivor count: 6 of 6
dose: 25.0 mg/kg/injection, schedule: Q01DX009 (ip), vehicle: saline with Tween-80
  survivor count: 5 of 6
dose: 25.0 mg/kg/injection, schedule: Q04DX003 (ip), vehicle: saline with Tween-80
  T/C: 141 % of control
dose: 37.5 mg/kg/injection, schedule: Q04DX003 (ip), vehicle: saline with Tween-80
  survivor count: 6 of 6

## CC(C)CCOP(=S)(N1CC1)N1CC1
[3]
  T/C: 136 % of control
[4]
  T/C: 131 % of control

## CC1=C(Br)C(=O)C(Br)=C(Br)C1=O
dose: 80.0 mg/kg/injection, schedule: Q01DX009 (ip), vehicle: Klucel (hydroxypropylcellulose) (HPC)
  survivor count: 4 of 6
dose: 225.0 mg/kg/injection, schedule: Q01DX001 (ip), vehicle: Klucel (hydroxypropylcellulose) (HPC)
  survivor count: 0 of 6
dose: 340.0 mg/kg/injection, schedule: Q01DX001 (ip), vehicle: Klucel (hydroxypropylcellulose) (HPC)
  survivor count: 0 of 6

## CC(=O)N(O)c1ccc(Cl)cc1
dose: 200.0 mg/kg/injection, schedule: Q04DX002 (ip), vehicle: saline with Tween-80
  survivor count: 4 of 5 and 6 of 6
dose: 400.0 mg/kg/injection, schedule: Q04DX002 (ip), vehicle: saline with Tween-80
  survivor count: 0 of 6

## CC(=O)OC1CC2c3ccccc3C1c1cccc[n+]12 (centres undefined)
dose: 37.5 mg/kg/injection, schedule: Q01DX009 (ip), vehicle: Klucel (hydroxypropylcellulose) (HPC)
  survivor count: 6 of 6
dose: 75.0 mg/kg/injection, schedule: Q01DX009 (ip), vehicle: Klucel (hydroxypropylcellulose) (HPC)
  survivor count: 3 of 6

## Nc1nc(Cl)nc2c1ncn2C1OC(CO)C(O)C1O (centres undefined)
dose: 25.0 mg/kg/injection, schedule: Q01DX010 (ip), vehicle: carboxymethylcellulose (CMC)
  T/C: 142 % of control
dose: 56.25 mg/kg/injection, schedule: Q01DX009 (ip), vehicle: saline
  T/C: 141 % of control
dose: 74.25 mg/kg/injection, schedule: Q01DX009 (ip), vehicle: saline
  T/C: 136 % of control [5 of 6 alive]
dose: 200.0 mg/kg/injection, schedule: Q01DX010 (ip), vehicle: carboxymethylcellulose (CMC)
  survivor count: 4 of 6
dose: 225.0 mg/kg/injection, schedule: Q01DX009 (ip), vehicle: saline
  survivor count: 1 of 6
dose: 400.0 mg/kg/injection, schedule: Q01DX010 (ip), vehicle: carboxymethylcellulose (CMC)
  survivor count: 4 of 6

Source: PubChem BioAssay AID328 (DTP/NCI, 2004)
